This experiment addresses T1, AlIbpASEP (Acholeplasma laidlawii) (UniProt A9NFB2).
T1 sequence: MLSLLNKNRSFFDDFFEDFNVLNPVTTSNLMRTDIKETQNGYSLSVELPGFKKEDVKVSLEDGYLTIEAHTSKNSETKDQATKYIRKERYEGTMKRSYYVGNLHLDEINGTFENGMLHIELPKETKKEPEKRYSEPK
The experiment can be described thus: SPR; BIAcore T200; His6-AlIbpA proteins immobilised on Ni2+-loaded NTA chip (FC2, about 2000 RU); His6-TnrA20 on FC1 as control, response difference FC2 − FC1; ADH 1.0 mg ml^−1 injected at 10 μl min^−1; 10 mM Na2HPO4, 150 mM NaCl, pH 7.4; KD calculated from the binding curve slopes; both purified.

In article PMC9050003, “N- and C-terminal regions of the small heat shock protein IbpA from Acholeplasma laidlawii competitively govern its oligomerization pattern and chaperone-like activity†” (RSC Advances, 2020) one finds binding data, which are given here for one substance.

Results are given in words; binding and its absence hold for the method and conditions named.

Regarding alcohol dehydrogenase (enzyme), the binding entry is “no binding (tested: 1.0 mg ml^−1)”.
